PubChem BioAssay AID504774 | Drosophila RNAi Screening Center – 2011
The screen tested about 23,000 reagents; shown is a random part of those with a known target gene and a result. 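Values are quantile-normalised luminescence on an arbitrary scale; higher means more cells surviving MMS.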 A plus sign joins genes that one reagent is predicted to hit.

- Purpose: 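Fly genes whose loss alters survival after alkylation damage to DNA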 (primary screen)
- Cells: Drosophila Kc167 cells
- Knock-down reagent: long dsRNA against Drosophila genes, about 0.25 µg dsRNA per well
- Duration: about 6 days: 3 days knock-down, then 3 days with or without MMS
- Conditions: methyl methanesulphonate 0.004% (w/v) for 3 days after knock-down
- Read-out: 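Viability in wells given MMS, read as ATP luminescence, normalised by quantiles plate by plate and averaged across replicates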
- Scale: mean viability with MMS and viability with MMS: higher = more surviving cells after MMS

no.	predicted target	amplicon	mean viability with MMS	viability with MMS, replicate 1	viability with MMS, replicate 2
1	knk (knickkopf)	DRSC15993	3.59e6	4.09e6	4.01e6
2	CG46441	DRSC15561	3.74e6	4.19e6	4.21e6
3	CG30273	DRSC22059	3.56e6	4.03e6	4.02e6
4	CG30187	DRSC22461	3.56e6	4.10e6	3.95e6
5	Ir94f (Ionotropic receptor 94f)	DRSC13621	3.59e6	4.11e6	4.04e6
6	CG15909	DRSC04977	3.25e6	3.61e6	3.63e6
7	CG8851	DRSC00718	3.65e6	4.27e6	3.96e6
8	CG8642	DRSC07228	3.50e6	3.99e6	3.97e6
9	CG8314	DRSC07144	3.70e6	4.21e6	4.17e6
10	mio (missing oocyte)	DRSC00692	3.12e6	3.45e6	3.44e6
11	mio (missing oocyte)	DRSC22056	3.31e6	3.88e6	3.82e6
12	CG3655	DRSC17676	3.54e6	4.14e6	3.89e6
13	CG3655	DRSC18181	3.61e6	4.06e6	4.12e6
14	CG3655	DRSC18477	3.55e6	4.05e6	4.02e6
15	CG3655	DRSC22688	3.63e6	4.05e6	4.13e6
16	Gr39a (Gustatory receptor 39a)	DRSC01841	3.40e6	3.95e6	3.79e6
17	Gr39a (Gustatory receptor 39a)	DRSC01842	3.56e6	4.05e6	4.02e6
18	CG9733	DRSC16549	3.38e6	3.75e6	3.84e6
19	Ada (Adenosine deaminase)	DRSC14463	3.40e6	3.89e6	3.85e6
20	bab2 (bric a brac 2)	DRSC08150	3.53e6	4.02e6	3.98e6
21	bab2 (bric a brac 2)	DRSC08380	3.23e6	3.64e6	3.70e6
22	Rab39	DRSC17827	3.45e6	3.98e6	3.86e6
23	CG13841	DRSC14691	3.46e6	3.86e6	3.95e6
24	Rm62	DRSC12365	3.23e6	3.65e6	3.76e6
25	CG5302 (retired record)	DRSC15764	3.70e6	4.32e6	4.08e6
26	CG5302 (retired record)	DRSC15765	3.78e6	4.32e6	4.24e6
27	CG5302 (retired record)	DRSC22671	3.53e6	4.06e6	3.94e6
28	Cyp313a1 (Cytochrome P450 313a1)	DRSC16624	3.76e6	4.22e6	4.31e6
29	onecut	DRSC17175	3.67e6	4.09e6	4.21e6
30	CG7742	DRSC03066	3.71e6	4.17e6	4.28e6
31	Ubc87F (Ubiquitin conjugating enzyme 87F)	DRSC16513	3.42e6	3.71e6	4.03e6
32	Cpr12A (Cuticular protein 12A)	DRSC19722	3.63e6	4.16e6	4.04e6
33	eIF6 (eukaryotic translation initiation factor 6)	DRSC04674	3.48e6	4.12e6	3.75e6
34	CG9016	DRSC03127	3.58e6	4.01e6	4.08e6
35	cv (crossveinless)	DRSC17833	3.62e6	4.06e6	4.15e6
36	CG42269	DRSC10670	3.60e6	4.06e6	4.12e6
37	CG42269	DRSC10672	3.92e6	4.60e6	4.22e6
38	Cyp6a22 (Cytochrome P450 6a22)	DRSC07382	3.43e6	3.85e6	3.90e6
39	CG14402	DRSC02386	3.76e6	4.47e6	3.98e6
40	Teh3 (tipE homolog 3)	DRSC08537	3.47e6	3.92e6	3.96e6
41	Nlg3 (Neuroligin 3)	DRSC12477	3.65e6	3.90e6	4.33e6
42	Nlg3 (Neuroligin 3)	DRSC12524	3.55e6	3.99e6	4.07e6
43	Nlg3 (Neuroligin 3)	DRSC12540	3.46e6	3.92e6	3.95e6
44	Nlg3 (Neuroligin 3)	DRSC12574	3.35e6	3.85e6	3.79e6
45	TM9SF3 (Transmembrane 9 superfamily protein member 3)	DRSC09747	3.64e6	4.19e6	4.07e6
46	CG4582	DRSC15605	3.59e6	3.96e6	4.19e6
47	Cpsf73 (Cleavage and polyadenylation specificity factor 73)	DRSC16291	3.48e6	4.03e6	3.88e6
48	CG15306	DRSC17993	3.52e6	4.08e6	3.90e6
49	CG15306	DRSC18240	3.52e6	3.93e6	4.04e6
50	HPS4 (Hermansky-Pudlak Syndrome 4)	DRSC06906	3.43e6	3.89e6	3.86e6
51	CG34231	DRSC05323	3.60e6	4.08e6	4.03e6
52	mod(mdg4) (modifier of mdg4)	DRSC13474	3.83e6	4.15e6	4.37e6
53	mod(mdg4) (modifier of mdg4)	DRSC13475	3.90e6	4.13e6	4.50e6
54	mod(mdg4) (modifier of mdg4)	DRSC13478	3.45e6	3.81e6	4.02e6
55	mod(mdg4) (modifier of mdg4)	DRSC13479	3.55e6	3.98e6	4.10e6
56	mod(mdg4) (modifier of mdg4)	DRSC15042	3.59e6	4.07e6	4.07e6
57	mod(mdg4) (modifier of mdg4)	DRSC17000	3.46e6	3.89e6	3.96e6
58	Mer (Merlin)	DRSC20259	3.62e6	4.06e6	4.17e6
59	CG10543	DRSC04081	3.32e6	3.71e6	3.78e6
60	CG10543	DRSC23102	3.55e6	4.18e6	3.90e6
61	Cyt-b5 (Cytochrome b5)	DRSC07392	3.51e6	3.99e6	3.96e6
62	CG13751	DRSC06422	3.63e6	4.06e6	4.10e6
63	CheB38c (Chemosensory protein B 38c)	DRSC02389	3.73e6	4.07e6	4.33e6
64	CG6567 + CG4565	DRSC15599	3.56e6	4.08e6	4.00e6
65	Atg13 (Autophagy-related 13)	DRSC16228	3.63e6	4.13e6	4.08e6
66	Cda5 (Chitin deacetylase-like 5)	DRSC00003	3.61e6	3.88e6	4.31e6
67	Cda5 (Chitin deacetylase-like 5)	DRSC00529	3.54e6	3.95e6	4.10e6
68	Cda5 (Chitin deacetylase-like 5)	DRSC00532	3.54e6	3.99e6	4.04e6
69	Cda5 (Chitin deacetylase-like 5)	DRSC21330	3.50e6	4.04e6	3.92e6
70	bif (bifocal)	DRSC18901	3.45e6	3.92e6	3.92e6
71	bif (bifocal)	DRSC20313	3.65e6	4.21e6	4.07e6
72	Gsc (Goosecoid)	DRSC00755	3.50e6	3.95e6	3.97e6
73	CG7213	DRSC10787	3.54e6	4.06e6	3.97e6
74	dgt2 (dim gamma-tubulin 2)	DRSC02548	3.53e6	4.02e6	4.00e6
75	Ddx56 (DEAD-box helicase 56)	DRSC20567	3.55e6	4.09e6	3.96e6
76	Fitm (Fat storage inducing transmembrane protein)	DRSC09772	3.47e6	3.93e6	3.93e6
77	boil (boilerman)	DRSC17872	3.56e6	4.04e6	4.06e6
78	CG7059	DRSC16187	3.51e6	3.89e6	4.07e6
79	CG31111	DRSC14649	3.40e6	3.85e6	3.80e6
80	CG13563	DRSC22153	3.52e6	3.98e6	4.02e6
81	COX7AL2 (Cytochrome c oxidase subunit 7A-like 2)	DRSC00099	3.61e6	4.00e6	4.19e6
82	syd (sunday driver)	DRSC10963	3.54e6	4.02e6	4.00e6
83	CG7304	DRSC10804	3.62e6	4.23e6	3.96e6
84	Coq5 (Coenzyme Q5)	DRSC19849	3.56e6	4.01e6	4.05e6
85	Coq5 (Coenzyme Q5)	DRSC21371	3.81e6	4.35e6	4.24e6
86	zf30C (zinc finger protein 30C)	DRSC03641	3.51e6	4.10e6	3.86e6
87	Zir (Zizimin-related)	DRSC00307	3.28e6	3.75e6	3.55e6

9 of these entries in another layout:
predicted target	amplicon	mean viability with MMS	viability with MMS, replicate 1	viability with MMS, replicate 2
CG9016	DRSC03127	3.58e6	4.01e6	4.08e6
cv (crossveinless)	DRSC17833	3.62e6	4.06e6	4.15e6
CG42269	DRSC10670	3.60e6	4.06e6	4.12e6
CG42269	DRSC10672	3.92e6	4.60e6	4.22e6
Cyp6a22 (Cytochrome P450 6a22)	DRSC07382	3.43e6	3.85e6	3.90e6
CG14402	DRSC02386	3.76e6	4.47e6	3.98e6
Teh3 (tipE homolog 3)	DRSC08537	3.47e6	3.92e6	3.96e6
Nlg3 (Neuroligin 3)	DRSC12477	3.65e6	3.90e6	4.33e6
Nlg3 (Neuroligin 3)	DRSC12524	3.55e6	3.99e6	4.07e6
